Assay results published in PMC4456606, “A conserved histidine modulates HSPB5 structure to trigger chaperone activity in response to stress-related acidosis” (eLife, 2015).
Where a chain is given by its changes, count along the chain named. Names may count otherwise. Results are given in words; binding and its absence hold for the method and conditions named. Some results given as binding are weak or reduced against the parent protein; the word gives no strength. For part of these data: Tags and fused reporters may be left off the sequences shown.

Tests used:
[1] = molecular target: HSPB5-ACD (alpha-crystallin domain of HSPB5, residues 64-152) (human) (UniProt P02511); experiment: NMR solution structure; pH 7.5, 22°C; NOEs, RDCs and chemical shifts, RosettaOligomer; 50 mM sodium phosphate, 100 mM NaCl, 0.1 mM EDTA; both purified
[2] = molecular target: HSPB5-ACD (alpha-crystallin domain of HSPB5, residues 64-152) (human) (UniProt P02511); experiment: 1H-15N HSQC NMR; 200 μM ACD, pH 6.5, 22°C, NMR buffer; populations of dimer and monomer peaks; dimer to monomers; both purified
[3] = molecular target: HSPB5-ACD (alpha-crystallin domain of HSPB5, residues 64-152) (human) (UniProt P02511); experiment: 1H-15N HSQC NMR; 200 μM ACD, pH 7.5, 22°C, NMR buffer; populations of dimer and monomer peaks; dimer to monomers; both purified
[4] = molecular target: HSPB5-ACD with His-83 mutated to Gln (human) (UniProt P02511); experiment: 1H-15N HSQC NMR; data not shown; pH dependence of the spectra of His-to-Gln mutant ACDs; both purified
[5] = molecular target: HSPB5-ACD with His-101 mutated to Gln (human) (UniProt P02511); experiment: as above
[6] = molecular target: HSPB5-ACD with His-111 mutated to Gln (human) (UniProt P02511); experiment: as above
[7] = molecular target: HSPB5-ACD with His-119 mutated to Gln (human) (UniProt P02511); experiment: as above
[8] = molecular target: H104K-ACD (HSPB5-ACD with His-104 replaced by Lys) (human) (UniProt P02511); experiment: 1H-15N HSQC NMR; 200 μM ACD, pH 6.5, 22°C, NMR buffer; populations of dimer and monomer peaks; dimer to monomers; both purified
[9] = molecular target: H104K-ACD (HSPB5-ACD with His-104 replaced by Lys) (human) (UniProt P02511); experiment: condition: >1 mM (samples containing 200 μM protein); 1H-15N HSQC NMR; 200 μM ACD, pH 7.5, 22°C, NMR buffer; populations of dimer and monomer peaks; dimer to monomers; both purified

B1: HSPB5-ACD (alpha-crystallin domain of HSPB5, residues 64-152) (domain or fragment, human, UniProt P02511 64-152, looked up)
chain: GLSEMRLEKDRFSVNLDVKHFSPEELKVKVLGDVIEVHGKHEERQDEHGFISREFHRKYRIPADVDPLTITSSLSSDGVLTVNGPRKQV
notes: HSPB5 (alphaB-crystallin), human, alpha-crystallin domain, residues 64-152; 15N- or 13C,15N-labelled for the NMR experiments; also called WT-ACD; WT-HSPB5-ACD; source: expressed and purified as described previously (Jehle et al., 2009)
Q: Which results are given for B1?
A: binding [1]: binds; binding [2]: binds; binding [3]: binds

B2: HSPB5-ACD with His-83 mutated to Gln (domain or fragment, UniProt P02511 64-152)
chain: B1 chain with H20Q
Q: With B2 as the binder, how does the binding [4] read?
A: The binding was “binds”.

B3: HSPB5-ACD with His-101 mutated to Gln (domain or fragment, UniProt P02511 64-152)
chain: B1 chain with H38Q
Q: Which binding [5] does the source give for B3 here?
A: The binding was “binds”.

B4: HSPB5-ACD with His-111 mutated to Gln (domain or fragment, UniProt P02511 64-152)
chain: B1 chain with H48Q
Q: Which binding [6] does the source give for B4 here?
A: Its binding is “binds”.

B5: HSPB5-ACD with His-119 mutated to Gln (domain or fragment, UniProt P02511 64-152)
chain: B1 chain with H56Q
Q: Which binding [7] does the source give for B5 here?
A: The binding was “binds”.

B6: H104K-ACD (HSPB5-ACD with His-104 replaced by Lys) (domain or fragment, human, UniProt P02511 64-152, looked up)
chain: B1 chain with H41K
notes: HSPB5 (alphaB-crystallin), human, alpha-crystallin domain, residues 64-152, with H104K; source: growth and purification similar to that of wild-type proteins (Jehle et al., 2009)
Q: Which results are given for B6?
A: binding [8]: no binding; binding [9]: no binding
